# Small-molecule microarray binding calls

Source: the ROBIN nucleic acid binder screens (doi:10.1002/anie.202211358).

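Compounds were printed on reactive glass slides in duplicate spots, a dye-labelled oligonucleotide was laid over them, and the fluorescence left after washing was read. The data file lists only calls. An earlier report of the laboratory on the PreQ1, TPP and SAM-II riboswitches (doi:10.1038/s41467-019-09493-3) used 1 µM RNA for 2 h and required a mean Z-score above 3 (spot signal-to-noise against the whole library), a score well above that on a control array, and duplicate spots agreeing (coefficient of variation under 100); it then also set aside compounds that hit other targets, which this list keeps. The cut-offs behind this list may differ. The calls come from the array alone, and fixing a compound to the slide can hide its binding.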 Key: 1 = hit, 0 = tested without a hit. This is an unselected part of the compounds tested. A dash means that no call is listed here.

Targets (5′ to 3′):
SAM-II: SAM-II riboswitch RNA pseudoknot, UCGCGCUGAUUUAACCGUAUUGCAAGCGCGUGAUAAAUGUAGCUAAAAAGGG. About 21,000 compounds screened, about 200 hits.
TPP: TPP riboswitch RNA three-way junction, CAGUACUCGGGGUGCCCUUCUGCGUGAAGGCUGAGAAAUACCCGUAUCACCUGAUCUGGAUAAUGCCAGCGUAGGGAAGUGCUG. About 24,000 compounds screened, about 160 hits.
PreQ1: PreQ1 riboswitch RNA pseudoknot, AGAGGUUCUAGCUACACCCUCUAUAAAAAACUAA. From B. subtilis. About 24,000 compounds screened, about 170 hits.

SMILES,SAM-II,TPP,PreQ1
CCN1C(=O)C(Cc2nc3ccccc3c(=O)n2CCCO)c2cc(C)ccc21 (stereo not given),-,0,0
c1ccc(CN2CCCC(CNC3CCCC3)C2)cc1 (stereo not given),0,0,0
Nc1cc(-c2ccc(-c3nnn[nH]3)cc2)c2cc[nH]c2n1,0,0,0
Nc1ccc(S(=O)(=O)NCc2ccccn2)cc1,0,0,0
CC(=O)c1ccc(OCC(O)CN2CCCCC2)cc1 (stereo not given),0,0,0
Cc1ccc2nc(-c3cccnc3)c(NC3CCCCC3)n2c1,0,0,0
CC(=O)N1CCC(N[C@@H]2CC[C@@H]2NC(=O)CCCn2cccn2)CC1,0,0,0
CCOC(=O)c1cnc2ccc(C)cc2c1Nc1ccc(N2CCOCC2)cc1,0,0,0
N#CC1=C(N)Oc2c(c(=O)oc3ccccc23)C1c1ccc(Br)cc1 (stereo not given),0,0,0
COc1ccc(NC(=O)N2C[C@H](O)[C@@H](N3CCOCC3)C2)cc1C#N,0,0,0
N#Cc1nc(Cl)c(Cl)c(N)c1Cl,0,0,0
N#CC1=C(N)OC2=C(C(=O)CCC2)C1c1cc(Br)ccc1F (stereo not given),0,0,0
CCN(CC)C(=O)Cn1c(-c2nonc2N)nc2ccccc21,0,0,0
COc1ccccc1C1C(C#N)=C(N)Oc2c1c(=O)sc1ccccc21 (stereo not given),0,0,0
CC1=C(C(=O)OCc2ccccc2)C2(C(=O)Nc3ccccc32)C(C(=O)OC(C)(C)C)=C(N)O1 (stereo not given),0,0,0
Cc1cc(N2CCC(NCCc3cscn3)CC2)nc(N2CCCC2)n1,0,0,0
NCc1ccc(F)c(-c2cccc3ccnn23)c1,0,0,0
COc1ccccc1CCNCc1ccc(C(F)(F)F)cc1,0,0,0
COc1cccc(NC(=O)c2nnn(Cc3cccc(Br)c3)c2N)c1,0,0,0
Cc1ccc(NC(=O)Cn2nnc(C(=O)Nc3cccc(F)c3)c2N)cc1,0,0,0
CCCCc1c(C)nc(N)nc1N[C@@H](CO)C(N)=O,0,0,0
CCc1cn[nH]c1C1CCN(C(=O)c2cn(CC3CCCNC3)nn2)CC1 (stereo not given),0,0,0
CCN1c2ccccc2C2=C(C(c3ccccc3)C(C#N)=C(N)O2)S1(=O)=O (stereo not given),-,0,0
Cc1nc(C2=C(N)N(c3ccccc3)CC2=O)sc1C,-,0,0
CCOc1ccc(-c2[nH]cnc2-c2ccccc2)cc1CO,0,0,0
O=S1(=O)CCC(CNCc2cc(O)c3cccc(F)c3n2)C1 (stereo not given),0,0,0
Cc1ccc2c(C)c(C(=O)N(C)[C@@H]3CS(=O)(=O)C[C@H]3O)oc2c1,0,0,0
CCOC(=O)c1c(NC(=O)CNCc2ccccc2)sc2c1CCN(C(=O)OCC)C2,0,0,0
COc1ccc2c(c1)CC[C@H]1[C@@H]2CC[C@]2(C)[C@@H](NCCCCCCN3C(=O)C=CC3=O)CC[C@H]12,0,0,0
Cc1nc2nc(CN)nn2c(C)c1CCC(=O)NC1CCCCC1,-,0,0
COc1ccc(C(O)Cn2c(=N)n(CCCN(C)C)c3ccccc32)cc1 (stereo not given),0,0,0
Cc1nc(C2=C(N)N(c3ccc4c(c3)OCCO4)CC2=O)sc1C,-,0,0
N#CC1=C(N)N(c2ccccc2)C2=C(C(=O)OC2)C12C(=O)N(Cc1ccccc1F)c1ccccc12 (stereo not given),0,0,0
Nc1c(C(=O)c2ccccc2)sc2nc(-c3cccs3)ccc12,0,0,0
O=C(CCc1nc(-c2ccccc2)no1)N1C[C@H]2CCC[C@@]2(CO)C1,0,0,0
COCCN1CCn2c(nc3cc(Nc4nnc(C)c5ccccc45)ccc32)C1,-,0,0
Cn1nnnc1SCCNC1CCN(Cc2ccccc2)C1 (stereo not given),0,0,0
Cc1cc(OCCCCn2c(CO)nc3ccccc32)ccc1Cl,0,0,0
Cc1nc2ccc(CNc3cc(C(C)C)nc(N)n3)cc2[nH]1,0,0,0
Cc1ccc(Nc2c(-c3ccncc3)nc3ccc(Cl)cn23)cc1,0,0,0
CCOc1ccc(/C=C2\CCc3ccccc3C2=O)cc1,0,0,0
COc1cc(-c2nc3cnccn3c2Nc2ccc(C(=O)O)cc2)ccc1O,-,0,0
CC(C)(CO)NC(=O)c1cc(-c2ccccc2F)no1,-,0,0
O=C(Nc1nc2ccc(NC(=O)C3C4CC5CC(C4)CC3C5)cc2s1)c1ccccc1 (stereo not given),0,0,0
CN(CC1(CO)CCCC1)C(=O)C(c1ccccc1F)N(C)C (stereo not given),0,0,0
NCCc1csc(-c2ccc(C(F)(F)F)cc2)n1,0,0,0
OC1CCN(c2ccnc(NCCc3cccs3)n2)CC1,0,0,0
Cc1cccc(-c2noc(-c3cccnc3NCc3ccccc3Cl)n2)c1,-,0,0
COCc1nn2c(N)c(C#N)nnc2c1-c1ccc(Cl)cc1,0,0,0
Nc1c(-c2nc(-c3ccc(F)cc3)no2)nnn1-c1ccc(Cl)cc1,-,0,0
CC(C)c1ccc2c(c1)CCC1C(C)(CN)CCCC21C.O=C(O)c1ccccc1 (stereo not given),0,1,0